In all, about 33,000 sequences were measured (“E-score (-0.5 to 0.5)”: median about -0.0059, highest 2% from about 0.26 on). The list shows a part of the results.
Target: T1, Cin5 (UniProt P40917)
T1 sequence: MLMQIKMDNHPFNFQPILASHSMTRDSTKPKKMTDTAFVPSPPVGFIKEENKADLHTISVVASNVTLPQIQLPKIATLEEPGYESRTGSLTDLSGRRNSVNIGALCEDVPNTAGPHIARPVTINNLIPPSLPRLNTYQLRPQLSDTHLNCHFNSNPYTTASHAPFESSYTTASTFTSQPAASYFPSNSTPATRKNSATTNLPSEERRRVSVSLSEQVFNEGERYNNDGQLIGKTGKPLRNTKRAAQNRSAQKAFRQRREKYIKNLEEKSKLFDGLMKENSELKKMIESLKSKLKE
Assay: PBM E-score (8-mer binding enrichment) (E-score (-0.5 to 0.5)); higher = stronger / more preferred TF binding
Conditions: protein concentration: 100 nM; construct: GST-full length
Procedure: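 Universal 'all 10-mer' protein binding microarrays (Agilent AMADID 015681) probed with GST-tagged S. cerevisiae TFs (full-length or DBD) made by in vitro transcription/translation (PURExpress), about 100-200 nM. Bound TF was detected with fluorescent anti-GST. Each ungapped 8-mer (which stands for itself and its reverse complement) is scored by the PBM enrichment score (E-score), a modified Wilcoxon-Mann-Whitney statistic from -0.5 to +0.5, computed with the Universal PBM Analysis Suite. Scale: above 0.35 generally sequence-specific binding.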

| Sequence | PBM E-score |
| --- | --- |
| TGGATACA | 0.0703 |
| CATCGGGC | -0.081 |
| AAAGTAAG | 0.00481 |
| ACGACTAA | -0.0545 |
| CTAAACAC | -0.0679 |
| GCCAGCAA | -0.0858 |
| GGCGGACC | -0.213 |
| CCCGTTGA | -0.132 |
| ACACCCCC | -0.432 |
| CGCCGACG | -0.177 |
| GTGGGAAC | -0.144 |
| CAGCTTCC | -0.0882 |
| GGCGCCAC | -0.158 |
| CATCGATA | 0.258 |
| AGGGTCTG | -0.234 |
| GATTGACA | 0.174 |
| AGTCTAAT | 0.0109 |
| CCTGTGCA | -0.119 |
| CAGACCAG | -0.0764 |
| CCAAAGAA | 0.114 |
| AGACATTC | -0.0508 |
| AGTACCGA | -0.117 |

| Sequence | PBM E-score |
| --- | --- |
| AGAGCGCC | -0.143 |
| CCACAGGC | -0.308 |
| GCCACAAC | 0.126 |
| AAGCCCGC | -0.0465 |
| AGCCATCG | -0.0037 |
| GACTGATC | -0.00898 |
| GATTGACC | -0.169 |
| ACGAGCCA | -0.0272 |
| ACTCGACC | -0.152 |
| ATAGATAA | 0.267 |
| CACTGTAG | 0.0998 |
| CAGCACTG | -0.0716 |
| GGCAAGGA | -0.0654 |
| CCGGTAAA | 0.0591 |
| AAGAGAGC | -0.251 |
| AAGTCGCA | 0.135 |
| CCATAAGC | 0.215 |
| AGACGGCA | -0.0187 |
| ATGGCGCC | -0.095 |
| AATCGCGA | 0.194 |
| CCGATCCG | -0.0859 |
| TATGTCAA | 0.294 |

| Sequence | PBM E-score |
| --- | --- |
| AAGCGGGC | -0.113 |
| ATACCTCG | 0.134 |
| CCTATCGC | -0.168 |
| AAATTGTT | 0.0848 |
| CCACGCAC | -0.035 |
| ATATGGTC | 0.129 |
| ATCTGCCA | -0.139 |
| CTCGCTTA | 0.346 |
| CTGACCTA | -0.0425 |
| GGAGGGCC | -0.259 |
| ACCACACA | 0.0594 |
| ATGATTGA | 0.132 |
| ATAACCTG | 0.0832 |
| ACAGCTGC | -0.0481 |
| CATTGTAA | 0.0665 |
| ACCGCTGC | -0.212 |
| CATCATGA | 0.122 |
| ACGACTCC | -0.133 |
| AACCGCAG | -0.0469 |
| CATCAGTA | 0.167 |
| AGCTGAAT | 0.231 |
| CCTAACGC | -0.0883 |

Some values from above:
GGAGGGCC | PBM E-score: -0.259
ATACCTCG | PBM E-score: 0.134
AGACGGCA | PBM E-score: -0.0187
CTGACCTA | PBM E-score: -0.0425

Later entries

| Sequence | PBM E-score |
| --- | --- |
| CGTTCCTC | -0.103 |
| AACCGAGG | -0.185 |
| CACTGTTA | -0.109 |
| CCCCGCCG | 0.029 |
| GAGTTGTA | 0.0828 |
| CATTAACA | 0.098 |
| CGACTGAG | -0.14 |
| AGTGGAAT | 0.0697 |
| ATAACTTA | 0.115 |
| ACAGGAGA | -0.0501 |
| CATCCGAC | -0.141 |
| ACAGGATG | 0.0645 |
| ACTCCCAG | 0.0654 |
| TGGGAGAA | -0.194 |
| ATCAGCCG | 0.0717 |
| ACATCCGC | 0.0458 |
| AGCCCTAC | -0.091 |
| GTGTTGCA | 0.00557 |
| CAATAGCG | 0.127 |
| CTATTAAC | 0.115 |
| ATAAGGAA | -0.0638 |
| GGGATTAA | 0.23 |

| Sequence | PBM E-score |
| --- | --- |
| GACATGCC | -0.103 |
| AGAAATCT | 0.121 |
| GTCATCTA | 0.0599 |
| TTATACAA | 0.159 |
| ATTGACTG | 0.00256 |
| ATTTTCGG | 0.105 |
| CCGGGACG | -0.162 |
| CATCTCCA | -0.0213 |
| CGCTGTAA | 0.137 |
| ACGAACAT | 0.138 |
| ACACATTG | 0.182 |
| CTTCTGGA | -0.187 |
| AGAATTCA | 0.0724 |
| AGGGCCAG | -0.177 |
| TGCTTCCA | -0.206 |
| ACTGCAGT | -0.171 |
| GGCCTCCC | -0.257 |
| ACTCCCAT | -0.0862 |
| GCTTCTGA | -0.00693 |
| GGAACTTA | 0.149 |
| AGACATGA | -0.0475 |
